# Measured values taken from US20250223559A1, “AXIOLOID: A STEM CELL-BASED MODEL OF HUMAN AXIAL DEVELOPMENT” (KYOTO UNIVERSITY, priority 2022, published 2025).
# At least one compound was matched to its structure with a doubt left.
# System: human Axioloids
# Assay: Immunofluorescence and HCR in situ expression patterns in Axioloids
# Format: cell-based
# Conditions: MG-embedded, RA or RAL treated
# Experimental: Human Axioloid samples were washed twice with 0.1% BSA (Nacalai) in PBS (Takara), fixed with 4% paraformaldehyde (PFA) for 20 minutes at room temperature and then washed again twice with 0.1% BSA in PBS. Samples were permeabilized in 0.2% Triton X-100 (Nacalai) in PBS for 15 minutes at room temperature and blocked in 5% BSA in PBS for 1 hour at room temperature. Axioloid samples were stained with primary antibodies diluted in 0.5% BSA in PBST (1% Tween-20 (Nacalai) in PBS) for overnight (12-16 hours) at 4° C. Primary antibodies used in this study were: goat anti-TBXT (TBXT) (1:500, R&D Systems), mouse anti-Fibronectin (1:10, DSHB), mouse anti-Laminin (γ1) (1:10, DSHB), rabbit anti-MEOX1 (1:500, ATLAS), mouse anti-N-Cadherin (1:200, BD Biosciences), mouse anti-PKCζ (1:100, Santa Cruz), rabbit anti-SOX2 (1:400, Cell Signaling), and goat anti-TBX6 (1:500, R&D Systems). Samples were then washed twice with PBST and stained with secondary antibodies and Alexa Fluor 647 conjugated Phalloidin (Invitrogen) diluted in 0.5% BSA in PBST for 3 hours at room temperature, washed twice with PBST and counterstained with DAPI for 5 min at room temperature. […]
structure (smiles),measurement,value
"CC1=C(/C=C/C(C)=C/C=C/C(C)=C/C(=O)O)C(C)(C)CCC1 [RA, Retinoic Acid]","protein and gene expression patterns (TBXT, MEOX1, UNCX, TBX18)",largely unchanged or even improved
